Measured values reported in paper PMC10854748.
No constants are given. Whether binding was seen depends on the method and setting. Binding seen in cells or lysates may run through a third protein. A yes stands for co-enrichment or nearness to the bait. Other partners may have been found. Tags and fused reporters may be left off the sequences shown.

By UniProt entry, the sequences of proteins in these tests, tags left out.
UniProt P09874: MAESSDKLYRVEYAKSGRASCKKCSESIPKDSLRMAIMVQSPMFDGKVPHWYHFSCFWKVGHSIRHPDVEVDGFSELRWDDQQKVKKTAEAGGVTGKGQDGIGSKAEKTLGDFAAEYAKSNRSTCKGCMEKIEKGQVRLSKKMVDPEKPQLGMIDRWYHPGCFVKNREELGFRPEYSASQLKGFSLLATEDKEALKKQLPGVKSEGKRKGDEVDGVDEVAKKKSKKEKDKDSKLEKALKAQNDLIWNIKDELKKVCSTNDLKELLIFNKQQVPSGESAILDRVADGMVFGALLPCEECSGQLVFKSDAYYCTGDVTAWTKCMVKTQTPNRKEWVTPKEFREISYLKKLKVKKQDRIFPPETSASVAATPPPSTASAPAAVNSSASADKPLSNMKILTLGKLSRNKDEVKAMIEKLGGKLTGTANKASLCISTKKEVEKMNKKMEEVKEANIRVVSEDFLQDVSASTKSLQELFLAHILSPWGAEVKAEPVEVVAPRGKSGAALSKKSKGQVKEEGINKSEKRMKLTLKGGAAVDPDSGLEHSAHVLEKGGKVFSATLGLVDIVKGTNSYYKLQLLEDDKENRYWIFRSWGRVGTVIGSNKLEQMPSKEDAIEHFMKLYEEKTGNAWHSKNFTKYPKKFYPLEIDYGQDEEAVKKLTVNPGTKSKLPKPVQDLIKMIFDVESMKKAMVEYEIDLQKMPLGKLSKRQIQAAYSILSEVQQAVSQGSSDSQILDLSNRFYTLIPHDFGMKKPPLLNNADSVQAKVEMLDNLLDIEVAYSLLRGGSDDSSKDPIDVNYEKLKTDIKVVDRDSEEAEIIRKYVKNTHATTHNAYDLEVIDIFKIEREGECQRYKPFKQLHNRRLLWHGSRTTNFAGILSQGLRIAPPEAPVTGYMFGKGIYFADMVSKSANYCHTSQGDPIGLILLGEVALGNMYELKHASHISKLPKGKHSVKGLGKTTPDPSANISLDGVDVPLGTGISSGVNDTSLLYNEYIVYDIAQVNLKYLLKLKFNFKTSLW
UniProt P78527: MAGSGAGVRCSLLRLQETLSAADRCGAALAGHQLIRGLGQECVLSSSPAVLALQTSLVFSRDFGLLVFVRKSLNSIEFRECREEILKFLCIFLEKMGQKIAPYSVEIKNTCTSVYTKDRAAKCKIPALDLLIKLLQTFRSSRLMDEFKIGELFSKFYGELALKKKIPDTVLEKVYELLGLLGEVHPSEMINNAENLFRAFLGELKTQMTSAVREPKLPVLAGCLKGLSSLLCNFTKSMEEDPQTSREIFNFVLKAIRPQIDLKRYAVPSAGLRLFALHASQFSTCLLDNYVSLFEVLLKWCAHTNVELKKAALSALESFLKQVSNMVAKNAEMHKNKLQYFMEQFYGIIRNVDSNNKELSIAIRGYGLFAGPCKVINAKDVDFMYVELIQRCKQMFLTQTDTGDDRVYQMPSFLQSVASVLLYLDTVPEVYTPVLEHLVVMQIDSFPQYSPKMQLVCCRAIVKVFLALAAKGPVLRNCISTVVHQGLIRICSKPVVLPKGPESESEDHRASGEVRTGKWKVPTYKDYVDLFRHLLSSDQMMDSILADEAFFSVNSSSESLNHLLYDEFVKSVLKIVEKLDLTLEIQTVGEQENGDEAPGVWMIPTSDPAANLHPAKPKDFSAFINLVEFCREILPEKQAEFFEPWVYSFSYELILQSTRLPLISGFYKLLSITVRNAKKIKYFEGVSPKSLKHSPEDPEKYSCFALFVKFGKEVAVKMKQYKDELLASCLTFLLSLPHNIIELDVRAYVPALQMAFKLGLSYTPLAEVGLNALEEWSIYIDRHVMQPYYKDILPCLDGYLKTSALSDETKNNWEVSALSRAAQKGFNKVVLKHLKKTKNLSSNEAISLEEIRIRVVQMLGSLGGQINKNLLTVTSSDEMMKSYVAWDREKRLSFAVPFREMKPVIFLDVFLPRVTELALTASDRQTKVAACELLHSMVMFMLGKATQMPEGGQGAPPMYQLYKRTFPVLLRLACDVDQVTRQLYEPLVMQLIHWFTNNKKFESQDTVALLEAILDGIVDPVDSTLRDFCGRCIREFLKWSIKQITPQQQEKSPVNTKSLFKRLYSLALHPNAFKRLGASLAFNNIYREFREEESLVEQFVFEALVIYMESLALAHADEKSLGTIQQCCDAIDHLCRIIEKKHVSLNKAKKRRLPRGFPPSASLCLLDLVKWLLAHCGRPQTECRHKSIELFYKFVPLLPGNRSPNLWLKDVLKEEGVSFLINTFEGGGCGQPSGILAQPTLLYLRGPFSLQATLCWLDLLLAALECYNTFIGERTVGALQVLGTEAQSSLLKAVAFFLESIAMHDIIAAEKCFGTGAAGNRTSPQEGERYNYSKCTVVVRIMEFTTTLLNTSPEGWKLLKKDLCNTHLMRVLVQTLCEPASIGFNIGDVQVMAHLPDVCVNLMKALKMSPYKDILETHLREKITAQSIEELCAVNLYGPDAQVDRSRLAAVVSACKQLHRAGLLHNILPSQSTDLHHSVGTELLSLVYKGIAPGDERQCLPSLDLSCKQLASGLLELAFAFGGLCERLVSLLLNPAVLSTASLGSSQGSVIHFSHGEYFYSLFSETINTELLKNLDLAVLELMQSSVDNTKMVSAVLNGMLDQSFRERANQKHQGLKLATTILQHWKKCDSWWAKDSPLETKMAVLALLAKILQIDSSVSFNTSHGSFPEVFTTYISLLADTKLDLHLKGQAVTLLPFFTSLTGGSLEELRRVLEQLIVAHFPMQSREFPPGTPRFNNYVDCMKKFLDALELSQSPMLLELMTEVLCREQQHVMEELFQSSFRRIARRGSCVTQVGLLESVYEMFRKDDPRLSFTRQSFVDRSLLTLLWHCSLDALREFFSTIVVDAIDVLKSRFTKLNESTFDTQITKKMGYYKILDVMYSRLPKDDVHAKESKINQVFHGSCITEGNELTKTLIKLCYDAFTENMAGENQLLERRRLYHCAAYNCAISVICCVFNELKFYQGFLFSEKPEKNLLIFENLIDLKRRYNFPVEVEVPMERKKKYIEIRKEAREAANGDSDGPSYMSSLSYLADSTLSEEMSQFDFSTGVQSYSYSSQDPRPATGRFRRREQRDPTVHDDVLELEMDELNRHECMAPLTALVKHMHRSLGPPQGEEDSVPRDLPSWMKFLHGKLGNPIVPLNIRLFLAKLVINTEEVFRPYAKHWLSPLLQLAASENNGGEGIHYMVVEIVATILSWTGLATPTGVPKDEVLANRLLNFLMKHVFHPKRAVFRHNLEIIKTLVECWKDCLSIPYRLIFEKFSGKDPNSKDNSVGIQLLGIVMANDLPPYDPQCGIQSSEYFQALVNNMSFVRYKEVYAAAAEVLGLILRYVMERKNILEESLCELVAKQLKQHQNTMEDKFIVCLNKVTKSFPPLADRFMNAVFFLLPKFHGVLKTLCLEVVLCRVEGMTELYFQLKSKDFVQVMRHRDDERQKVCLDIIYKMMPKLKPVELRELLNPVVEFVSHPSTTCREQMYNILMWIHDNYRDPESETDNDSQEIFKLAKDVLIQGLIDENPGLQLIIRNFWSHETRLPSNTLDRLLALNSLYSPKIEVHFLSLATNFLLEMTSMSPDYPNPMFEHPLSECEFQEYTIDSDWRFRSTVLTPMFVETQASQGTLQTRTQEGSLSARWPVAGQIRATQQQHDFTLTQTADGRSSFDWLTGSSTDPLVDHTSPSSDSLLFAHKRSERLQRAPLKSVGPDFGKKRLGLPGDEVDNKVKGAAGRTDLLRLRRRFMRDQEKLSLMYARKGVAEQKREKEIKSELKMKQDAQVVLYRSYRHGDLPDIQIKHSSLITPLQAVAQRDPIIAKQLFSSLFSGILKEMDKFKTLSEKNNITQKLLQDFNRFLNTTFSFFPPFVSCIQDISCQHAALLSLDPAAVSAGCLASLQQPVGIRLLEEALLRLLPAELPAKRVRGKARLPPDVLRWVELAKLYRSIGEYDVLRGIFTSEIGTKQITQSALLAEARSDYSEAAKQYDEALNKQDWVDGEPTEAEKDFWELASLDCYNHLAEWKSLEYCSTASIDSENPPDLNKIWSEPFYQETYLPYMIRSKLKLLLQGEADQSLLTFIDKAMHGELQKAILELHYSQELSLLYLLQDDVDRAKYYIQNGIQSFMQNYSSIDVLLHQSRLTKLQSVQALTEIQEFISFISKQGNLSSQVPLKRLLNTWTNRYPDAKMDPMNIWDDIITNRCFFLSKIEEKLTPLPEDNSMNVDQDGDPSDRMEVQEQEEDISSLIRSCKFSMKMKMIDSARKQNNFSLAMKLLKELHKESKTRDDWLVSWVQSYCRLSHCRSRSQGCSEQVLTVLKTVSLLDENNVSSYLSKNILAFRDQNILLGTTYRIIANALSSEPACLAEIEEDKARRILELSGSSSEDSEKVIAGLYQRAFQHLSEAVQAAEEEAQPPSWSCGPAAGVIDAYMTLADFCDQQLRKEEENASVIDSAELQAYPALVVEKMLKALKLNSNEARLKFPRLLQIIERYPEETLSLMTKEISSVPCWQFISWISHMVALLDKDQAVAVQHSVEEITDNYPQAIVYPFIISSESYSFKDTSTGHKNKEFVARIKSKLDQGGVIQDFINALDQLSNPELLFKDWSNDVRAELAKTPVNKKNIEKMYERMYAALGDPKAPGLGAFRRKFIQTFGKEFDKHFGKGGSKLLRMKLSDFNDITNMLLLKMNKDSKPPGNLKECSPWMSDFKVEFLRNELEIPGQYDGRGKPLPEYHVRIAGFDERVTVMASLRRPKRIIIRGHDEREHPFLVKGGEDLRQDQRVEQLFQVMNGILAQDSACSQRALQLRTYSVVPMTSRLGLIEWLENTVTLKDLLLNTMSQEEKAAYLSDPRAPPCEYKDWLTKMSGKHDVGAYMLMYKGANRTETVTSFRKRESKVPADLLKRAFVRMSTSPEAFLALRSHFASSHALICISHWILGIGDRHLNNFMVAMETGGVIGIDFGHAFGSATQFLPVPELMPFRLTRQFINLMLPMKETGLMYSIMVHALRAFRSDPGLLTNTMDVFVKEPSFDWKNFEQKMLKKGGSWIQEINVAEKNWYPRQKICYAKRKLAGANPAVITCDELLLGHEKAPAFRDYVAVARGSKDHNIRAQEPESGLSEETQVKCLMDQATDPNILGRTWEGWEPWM
UniProt P06748: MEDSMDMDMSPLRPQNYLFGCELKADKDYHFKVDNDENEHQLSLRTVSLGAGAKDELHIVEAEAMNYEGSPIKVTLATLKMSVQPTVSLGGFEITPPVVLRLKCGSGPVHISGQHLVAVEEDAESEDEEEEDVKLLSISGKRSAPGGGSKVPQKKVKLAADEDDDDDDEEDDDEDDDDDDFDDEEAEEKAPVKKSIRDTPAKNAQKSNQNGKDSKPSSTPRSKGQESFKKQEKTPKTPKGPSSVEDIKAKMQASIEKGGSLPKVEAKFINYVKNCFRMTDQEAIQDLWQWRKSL

Target: N-terminally FLAG-HA epitope-tagged human HIRIP3 (e-HIRIP3) (human) (UniProt Q9BW71)
Experiment: affinity purification with mass spectrometry; tandem anti-FLAG then anti-HA immunoaffinity purification of e-HIRIP3 from HeLa cytosolic, soluble nuclear and MNase-solubilised chromatin extracts; washes in TGEN-150 (20 mM Tris-HCl pH 7.65, 150 mM NaCl); silver staining and Orbitrap mass spectrometry

In the case of “PARP1 (from UniProt P09874 1-1014) (enzyme)”, the binding is reported as “binds”.
With “DNA-dependent protein kinase catalytic subunit (PRKDC) (from UniProt P78527 1-4128) (enzyme)” the binding was “binds”.
NPM1 (from UniProt P06748 1-294) was tested, and the binding was “binds”.
